PubChem BioAssay AID1259308 – NCATS, 2017
The deposit covers about 59,000 reagents; this is an unselected part. In the full data, about 1,510 (2.6%) got an active call. 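Calls use total luciferase alone and ignore viability, so some active siRNAs may act by altering cell number.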 Reagents against one gene are numbered here. Not all columns of the deposit are shown. Reagent sequences are not shown.

Test: 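Genes whose loss raises luciferase production in HEK293 cells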 (primary screen)
Cell system: human HEK293 embryonic kidney cells stably expressing firefly luciferase (HEK-CMV-Luc2-Hygro)
Reagent: single siRNA against human genes, 0.8 pmol siRNA per well
Timing: 72 h
Measurement: 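Luciferase light (ONE-Glo) measured on one replicate plate set and viability (CellTiter-Glo) on the other, scaled to a negative control siRNA, with robust z-scores and luciferase per cell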
Scale: total luciferase, z-score and total luciferase, % of control: higher = more reporter protein produced
Call rule: 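Active when the median/MAD z-score for overall luciferase is greater than 3; a gene was taken forward for validation with new siRNAs if at least two of its three siRNAs passed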
Calls: active = raised luciferase; inactive = no rise

SLC25A47 (GeneID 283600) #1 gave total luciferase, z-score -1.94; total luciferase, % of control 43.3; inactive.
After knock-down of SLC25A47 (GeneID 283600) #2, the record shows total luciferase, z-score 0.992; total luciferase, % of control 102; inactive.
After knock-down of SLC25A47 (GeneID 283600) #3, the screen gave total luciferase, z-score -0.158; total luciferase, % of control 78.8; inactive.
For UQCRFS1 (GeneID 7386) #1, the entry reads total luciferase, z-score 0.634; total luciferase, % of control 94.5; inactive.
Depletion of UQCRFS1 (GeneID 7386) #2 gave: total luciferase, z-score 0.181; total luciferase, % of control 85.5; inactive.
Silencing of UQCRFS1 (GeneID 7386) #3 came out at: total luciferase, z-score 0.304; total luciferase, % of control 87.9; inactive.
BRAF (GeneID 673) #1 showed total luciferase, z-score 0.0639; total luciferase, % of control 83.2; inactive.
BRAF (GeneID 673) #2 scored total luciferase, z-score -0.468; total luciferase, % of control 72.6; inactive.
After knock-down of BRAF (GeneID 673) #3, the record shows total luciferase, z-score -1.23; total luciferase, % of control 57.5; inactive.
Against PVALB (GeneID 5816) #1, the entry reads total luciferase, z-score 0.621; total luciferase, % of control 94.2; inactive.
PVALB (GeneID 5816) #2 gave total luciferase, z-score 0.152; total luciferase, % of control 84.9; inactive.
Knock-down of PVALB (GeneID 5816) #3 resulted in: total luciferase, z-score 0.196; total luciferase, % of control 85.8; inactive.
Silencing of CARD18 (GeneID 59082) #1 came out at: total luciferase, z-score -1.09; total luciferase, % of control 60.1; inactive.
For CARD18 (GeneID 59082) #2, the entry reads total luciferase, z-score -0.793; total luciferase, % of control 66.1; inactive.
CARD18 (GeneID 59082) #3 showed total luciferase, z-score 2.25; total luciferase, % of control 127; inactive.
Silencing of ACTN3 (GeneID 89) #1 came out at: total luciferase, z-score -0.581; total luciferase, % of control 70.3; inactive.
Against ACTN3 (GeneID 89) #2, the entry reads total luciferase, z-score 0.772; total luciferase, % of control 97.2; inactive.
Against ACTN3 (GeneID 89) #3 the deposit lists total luciferase, z-score -0.326; total luciferase, % of control 75.4; inactive.
For LOC646179 (retired record) (GeneID 646179) #1 the deposit lists total luciferase, z-score 2.72; total luciferase, % of control 136; inactive.
For LOC646179 (retired record) (GeneID 646179) #2 the deposit lists total luciferase, z-score 0.918; total luciferase, % of control 100; inactive.
After knock-down of LOC646179 (retired record) (GeneID 646179) #3, the record shows total luciferase, z-score -0.422; total luciferase, % of control 73.5; inactive.
Against NANP (GeneID 140838) #1 the deposit lists total luciferase, z-score -0.117; total luciferase, % of control 79.6; inactive.
Knock-down of NANP (GeneID 140838) #2 came out at: total luciferase, z-score -1.3; total luciferase, % of control 56.1; inactive.
NANP (GeneID 140838) #3 scored total luciferase, z-score -1.34; total luciferase, % of control 55.2; inactive.

A run of entries from the list above, for reference:
SLC25A47 (GeneID 283600) #3 — total luciferase, z-score: -0.158; total luciferase, % of control: 78.8; call: inactive
UQCRFS1 (GeneID 7386) #1 — total luciferase, z-score: 0.634; total luciferase, % of control: 94.5; call: inactive
UQCRFS1 (GeneID 7386) #2 — total luciferase, z-score: 0.181; total luciferase, % of control: 85.5; call: inactive

Further records follow:
After knock-down of C4orf51 (GeneID 646603) #1 the results were total luciferase, z-score 0.35; total luciferase, % of control 88.8; inactive.
For C4orf51 (GeneID 646603) #2, the entry reads total luciferase, z-score -0.23; total luciferase, % of control 77.3; inactive.
C4orf51 (GeneID 646603) #3 gave total luciferase, z-score -0.292; total luciferase, % of control 76.1; inactive.
CFHR2 (GeneID 3080) #1 showed total luciferase, z-score -0.288; total luciferase, % of control 76.2; inactive.
CFHR2 (GeneID 3080) #2 showed total luciferase, z-score 0.397; total luciferase, % of control 89.8; inactive.
Knock-down of CFHR2 (GeneID 3080) #3 resulted in: total luciferase, z-score -0.668; total luciferase, % of control 68.6; inactive.
Depletion of MAGEB5 (GeneID 347541) #1 gave: total luciferase, z-score -0.87; total luciferase, % of control 64.6; inactive.
For MAGEB5 (GeneID 347541) #2, the entry reads total luciferase, z-score 1.38; total luciferase, % of control 109; inactive.
Silencing of MAGEB5 (GeneID 347541) #3 resulted in: total luciferase, z-score 0.456; total luciferase, % of control 91; inactive.
Knock-down of DTL (GeneID 51514) #1 resulted in: total luciferase, z-score 1.26; total luciferase, % of control 107; inactive.
After knock-down of DTL (GeneID 51514) #2 the results were total luciferase, z-score 0.118; total luciferase, % of control 84.2; inactive.
Against DTL (GeneID 51514) #3 the deposit lists total luciferase, z-score -0.751; total luciferase, % of control 67; inactive.
With knock-down of NRP2 (GeneID 8828) #1, the screen gave total luciferase, z-score -1.04; total luciferase, % of control 61.2; inactive.
NRP2 (GeneID 8828) #2 scored total luciferase, z-score 2.6; total luciferase, % of control 134; inactive.
After knock-down of NRP2 (GeneID 8828) #3, the screen gave total luciferase, z-score 0.814; total luciferase, % of control 98.1; inactive.
LINC00460 (GeneID 728192) #1 showed total luciferase, z-score -0.55; total luciferase, % of control 70.9; inactive.
Depletion of LINC00460 (GeneID 728192) #2 gave: total luciferase, z-score -0.594; total luciferase, % of control 70.1; inactive.
Knock-down of LINC00460 (GeneID 728192) #3 resulted in: total luciferase, z-score 0.626; total luciferase, % of control 94.3; inactive.
